Experimental data from the supplement of paper PMC8732350.
Structures can show the parent of a compound that is named as a salt. ± gives the standard deviation of the averaged measurements. This is one part of the list. Most values lie within the scatter of the assay; repeated measurements hardly agree.

Tested on: A549
Test: surface PD-L1 immunofluorescence intensity relative to IFN-gamma-only control (ratio); higher = more PD-L1 expression
Conditions: 10 µM; exposure time 24 h; IFN-gamma 100 ng/mL

SMILES | surface PD-L1 immunofluorescence intensity
O=C(O)CNC(=O)C(CS)Cc1ccccc1 (racemic) [DL-Thiorphan] | 1.09
CCCC1C(=O)N2C(N(C)C)=Nc3ccc(C)cc3N2C1=O (stereo not given) [Azapropazone] | 1.03
c1cnc(N2CCN(Cc3ccc4c(c3)OCO4)CC2)nc1 [Piribedil hydrochloride] | 0.973
c1cnc(N2CCN(Cc3ccc4c(c3)OCO4)CC2)nc1 [Piribedil] | 1.07
COC(=O)/C=C/c1cccc(N(Cc2ccc(-c3ccc(N(C)C)cc3)cc2)C(=O)C2CCCCC2)c1 [Fexaramine] | 0.978
C[C@](N)(Cc1ccc(O)c(O)c1)C(=O)O [Methyldopa (L,-)] | 1.12
N[C@@H](CSC(c1ccccc1)(c1ccccc1)c1ccccc1)C(=O)O [S-Trityl-L-cysteine] | 0.933
O=C(CCCN1C(=O)c2cccc3cccc(c23)C1=O)NO [Nullscript] | 0.999
Cc1c(C(=O)NN2CCCCC2)nn(-c2ccc(Cl)cc2Cl)c1-c1ccc(Cl)cc1 | 1.03
COc1cc2c(cc1OC)CC(=O)N(CCCN(C)C[C@H]1Cc3cc(OC)c(OC)cc31)CC2 [Ivabradine HCl (Procoralan)] | 1.04
C[C@H]1c2cccc(O)c2C(=O)C2=C(O)[C@]3(O)C(=O)C(C(N)=O)=C(O)[C@@H](N(C)C)[C@@H]3[C@@H](O)[C@@H]21 [Doxycycline hydrochloride] | 0.923
C[C@H]1c2cccc(O)c2C(=O)C2=C(O)[C@]3(O)C(=O)C(C(N)=O)=C(O)[C@@H](N(C)C)[C@@H]3[C@@H](O)[C@@H]21 [Doxycycline HCl] | 0.973
O=C(O)C(=O)O.[NH-][C@@H]1CCCC[C@H]1[NH-].[Pt+2] [Oxaliplatin] | 0.999
CSc1cc2c(cc1C(F)(F)F)N(C(=O)Nc1cccnc1)CC2 | 1.02
Cc1cc2nc3c(=O)[nH]c(=O)nc-3n(C)c2cc1C=O | 1.03
Cc1ccc(NC(=O)c2ccc(CN3CCN(C)CC3)cc2)cc1Nc1nccc(-c2cccnc2)n1 [Imatinib Mesylate] | 1.09
Cc1ccc(NC(=O)c2ccc(CN3CCN(C)CC3)cc2)cc1Nc1nccc(-c2cccnc2)n1 [Imatinib (STI571)] | 1.11
Cc1ccc(NC(=O)c2ccc(CN3CCN(C)CC3)cc2)cc1Nc1nccc(-c2cccnc2)n1 [Imatinib mesylate] | 1.09 ± 0.033
Cc1ccc(NC(=O)c2ccc(CN3CCN(C)CC3)cc2)cc1Nc1nccc(-c2cccnc2)n1 [Imatinib] | 1.08
CC(C)C(=O)Oc1ccc(CO)cc1[C@H](CCN(C(C)C)C(C)C)c1ccccc1 [Fesoterodine fumarate (Toviaz)] | 0.952

Retrieved one by one from the entries so far:
SMILES | surface PD-L1 immunofluorescence intensity
CC(C)C(=O)Oc1ccc(CO)cc1[C@H](CCN(C(C)C)C(C)C)c1ccccc1 [Fesoterodine fumarate (Toviaz)] | 0.952
C[C@H]1c2cccc(O)c2C(=O)C2=C(O)[C@]3(O)C(=O)C(C(N)=O)=C(O)[C@@H](N(C)C)[C@@H]3[C@@H](O)[C@@H]21 [Doxycycline hydrochloride] | 0.923
